Measured data: PubChem BioAssay AID1159578 (Peter MacCallum Cancer Centre, 2015)

Screen: 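siRNA pools altering how lymphatic endothelial cells close a scratch wound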 (primary screen)
Cells: human lymphatic endothelial cells
Reagents: siRNA pool against human genes, 40 nM
Duration: 48 h after transfection
Detection: 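High-content imaging of dye-stained cells in a scratch assay measures filled wound area and nuclei per well; duplicate means given as ratio to mock and robust z-score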
Direction: migration robust z-score: higher = faster migration into the scratch; nuclei per well: higher = more cells in the well
Call rule: 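Migration changed when robust z exceeds 2 or falls below -2 and mean nuclei number is at least 3300; otherwise not called changed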
Calls: active = migration changed; inactive = no migration change, or too few cells
This is a random part of about 18,000 deposited reagents. About 1,030 of all reagents (5.7%) were called active. 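Inactive calls also include pools with fewer than 3300 nuclei, whose migration was not assessed.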 Raw values are not corrected between plates. The numbers tell different reagents against one gene apart. Further read-outs or replicates are left out here. Reagent sequences are not shown.

RASSF3 (Ras association domain family member 3) | migration robust z-score: 0.28; migration class with cell-count check: migration z between -2 and 2; enough cells; nuclei per well, duplicate mean: 6026; Call: inactive
ADSL (adenylosuccinate lyase) | migration robust z-score: -0.18; migration class with cell-count check: migration z between -2 and 2; enough cells; nuclei per well, duplicate mean: 6824; Call: inactive
AGAP4 (ArfGAP with GTPase domain, ankyrin repeat and PH domain 4) #1 | migration robust z-score: -0.17; migration class with cell-count check: migration z between -2 and 2; enough cells; nuclei per well, duplicate mean: 7134; Call: inactive
AGAP4 (ArfGAP with GTPase domain, ankyrin repeat and PH domain 4) #2 | migration robust z-score: 0.3; migration class with cell-count check: migration z between -2 and 2; enough cells; nuclei per well, duplicate mean: 7012; Call: inactive
BAZ2A (bromodomain adjacent to zinc finger domain 2A) | migration robust z-score: 0.27; migration class with cell-count check: migration z between -2 and 2; enough cells; nuclei per well, duplicate mean: 6234; Call: inactive
INPP5E (inositol polyphosphate-5-phosphatase E) | migration robust z-score: -0.8; migration class with cell-count check: migration z between -2 and 2; enough cells; nuclei per well, duplicate mean: 5056; Call: inactive
COX4I2 (cytochrome c oxidase subunit 4I2) | migration robust z-score: 1.04; migration class with cell-count check: migration z between -2 and 2; enough cells; nuclei per well, duplicate mean: 4135; Call: inactive
UNC5CL (unc-5 family C-terminal like) | migration robust z-score: 0.6; migration class with cell-count check: migration z between -2 and 2; enough cells; nuclei per well, duplicate mean: 5922; Call: inactive
RNFT2 (ring finger protein, transmembrane 2) | migration robust z-score: 0.94; migration class with cell-count check: migration z between -2 and 2; enough cells; nuclei per well, duplicate mean: 6690; Call: inactive
SLC25A37 | migration robust z-score: -1.79; migration class with cell-count check: migration z between -2 and 2; enough cells; nuclei per well, duplicate mean: 5304; Call: inactive
IGDCC4 (immunoglobulin superfamily DCC subclass member 4) | migration robust z-score: -0.15; migration class with cell-count check: migration z between -2 and 2; enough cells; nuclei per well, duplicate mean: 6166; Call: inactive
TMEM18 (transmembrane protein 18) | migration robust z-score: 0.19; migration class with cell-count check: migration z between -2 and 2; enough cells; nuclei per well, duplicate mean: 7414; Call: inactive
GSTA2 (glutathione S-transferase alpha 2) | migration robust z-score: 0.6; migration class with cell-count check: migration z between -2 and 2; enough cells; nuclei per well, duplicate mean: 6308; Call: inactive
HNRNPCL1 (heterogeneous nuclear ribonucleoprotein C like 1) | migration robust z-score: 0.48; migration class with cell-count check: migration z between -2 and 2; enough cells; nuclei per well, duplicate mean: 6960; Call: inactive
SUCLG2 (succinate-CoA ligase GDP-forming subunit beta) | migration robust z-score: 0.96; migration class with cell-count check: migration z between -2 and 2; enough cells; nuclei per well, duplicate mean: 5862; Call: inactive
FAM32A (family with sequence similarity 32 member A) | migration robust z-score: 0.36; migration class with cell-count check: migration z between -2 and 2; enough cells; nuclei per well, duplicate mean: 5689; Call: inactive
SEC14L4 (SEC14 like lipid binding 4) | migration robust z-score: 2.8; migration class with cell-count check: migration z above 2; enough cells; nuclei per well, duplicate mean: 5155; Call: active
RIOK3 (RIO kinase 3) | migration robust z-score: 0.52; migration class with cell-count check: migration z between -2 and 2; enough cells; nuclei per well, duplicate mean: 6802; Call: inactive
PSMB4 (proteasome 20S subunit beta 4) | migration robust z-score: -0.73; migration class with cell-count check: migration z between -2 and 2; enough cells; nuclei per well, duplicate mean: 5448; Call: inactive
USP25 (ubiquitin specific peptidase 25) | migration robust z-score: -2.59; migration class with cell-count check: migration z below -2; enough cells; nuclei per well, duplicate mean: 3622; Call: active
DCDC1 (doublecortin domain containing 1) #1 | migration robust z-score: -0.16; migration class with cell-count check: migration z between -2 and 2; enough cells; nuclei per well, duplicate mean: 6270; Call: inactive
DCDC1 (doublecortin domain containing 1) #2 | migration robust z-score: 0.84; migration class with cell-count check: migration z between -2 and 2; enough cells; nuclei per well, duplicate mean: 6957; Call: inactive

As entered above.
Result of SUCLG2 (succinate-CoA ligase GDP-forming subunit beta) under “Call”: inactive
SLC25A37, migration class with cell-count check: migration z between -2 and 2; enough cells
RIOK3 (RIO kinase 3), migration class with cell-count check = migration z between -2 and 2; enough cells
